Data: article PMC13295548
Results are given in words; binding and its absence hold for the method and conditions named. Binding seen in cells or lysates may run through a third protein. Some entries that bind do so weakly or less than the wild type. Sequences can lack the tags named with a protein.

Molecular target: T1, FLAG-tagged miP-FERMT3 fusion protein (human)
T1 sequence: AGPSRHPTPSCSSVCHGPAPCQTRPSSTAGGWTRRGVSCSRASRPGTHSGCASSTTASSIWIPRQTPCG
Experiment: co-IP; FLAG-miP-FERMT3 precipitated with anti-FLAG affinity gel from endothelial cell lysates (500 µg, overnight; 50 mmol/L Tris/HCl pH 7.5, 150 mmol/L NaCl, 1% NP-40); immunoblotting for TRIM8 and PSMD9; EGFP-expressing cells as control

Binder	binding
26S proteasome non-ATPase regulatory subunit 9 (protein, UniProt O00233 1-223) MSDEEARQSGGSSQAGVVTVSDVQELMRRKEEIEAQIKANYDVLESQKGIGMNEPLVDCEGYPRSDVDLYQVRTARHNIICLQNDHKAVMKQVEEALHQLHARDKEKQARDMAEAHKEAMSRKLGQSESQGPPRAFAKVNSISPGSPASIAGLQVDDEIVEFGSVNTQNFQSLHNIGSVVQHSEGKPLNVTVIRRGEKHQLRLVPTRWAGKGLLGCNIIPLQR	binds
tripartite motif containing 8 (protein, UniProt Q9BZR9 1-551) MAENWKNCFEEELICPICLHVFVEPVQLPCKHNFCRGCIGEAWAKDSGLVRCPECNQAYNQKPGLEKNLKLTNIVEKFNALHVEKPPAALHCVFCRRGPPLPAQKVCLRCEAPCCQSHVQTHLQQPSTARGHLLVEADDVRAWSCPQHNAYRLYHCEAEQVAVCQYCCYYSGAHQGHSVCDVEIRRNEIRKMLMKQQDRLEEREQDIEDQLYKLESDKRLVEEKVNQLKEEVRLQYEKLHQLLDEDLRQTVEVLDKAQAKFCSENAAQALHLGERMQEAKKLLGSLQLLFDKTEDVSFMKNTKSVKILMDRTQTCTSSSLSPTKIGHLNSKLFLNEVAKKEKQLRKMLEGPFSTPVPFLQSVPLYPCGVSSSGAEKRKHSTAFPEASFLETSSGPVGGQYGAAGTASGEGQSGQPLGPCSSTQHLVALPGGAQPVHSSPVFPPSQYPNGSAAQQPMLPQYGGRKILVCSVDNCYCSSVANHGGHQPYPRSGHFPWTVPSQEYSHPLPPTPSVPQSLPSLAVRDWLDASQQPGHQDFYRVYGQPSTKHYVTS	binds
